Reference: patent US20090155236A1, “Peptide sequence for modulation of delta protein kinase c” (NATIONAL INSTITUES OF HEALTH (NIH), U.S. DEPT OF HEALTH AND …, priority 2004, published 2009)
These are yes or no findings as the source states them, for the method shown. A result given as binding can be weak or reduced; the word gives no strength. For part of these data: Where a sequence is shown, tags or fusion partners need not be part of it.

B1: annexin I (protein)
chain: AMVSEFLKQAWFIENEEQEYVQTVKSSKGGPGSAVSPYPTFNPSSDVAALHKAIMVKGVDEATIIDILTKRNNAQRQQIKAAYLQETGKPLDETLKKALTGHLEEVVLALLKTPAQFDADELRAAMKGLGTDEDTLIEILASRTNKEIRDINRVYREELKRDLAKDITSDTSGDFRNALLSLAKGDRSEDFGVNEDLADSDARALYEAGERRKGTDVNVFNTILTTRSYPQLRRVFQKYTKYSKHDMNKVLDLELKGDIEKCLTAIVKCATSKPAFFAEKLHQAMKGVGTRHKALIRIMVSRSEIDMNDIKAFYQKMYGISLCQAILDETKGDYEKILVALCGGN

Target: recombinant full-length delta PKC (rat)
Test: ELISA, delta PKC immobilised, peptide-alkaline phosphatase fusion

Row | binding | Binder
1 | binds | MRAAENP (peptide, not shown: large carriers) [peptide MRAAENP (SEQ ID NO:13) fused to alkaline phosphatase]
2 | binds | MQAARDP (peptide, not shown: large carriers) [peptide MQAARDP (SEQ ID NO:12) fused to alkaline phosphatase]
3 | binds | MRAAQDP (peptide, not shown: large carriers) [peptide MRAAQDP (SEQ ID NO:14) fused to alkaline phosphatase]
4 | binds | MEAAEDP (peptide, not shown: large carriers) [peptide MEAAEDP (SEQ ID NO:15) fused to alkaline phosphatase]

Target: recombinant full-length delta PKC (rat)
Test: ELISA, delta PKC immobilised, peptide-alkaline phosphatase fusion, absorbance at 405 nm

Row | binding | Binder
5 | no binding | MAAAEDP (peptide, not shown: large carriers) [peptide MAAAEDP (SEQ ID NO:17) fused to alkaline phosphatase]
6 | binds | MRAAENP (peptide, not shown: large carriers) [peptide MRAAENP (SEQ ID NO:13) fused to alkaline phosphatase]
7 | no binding | MRAAADP (peptide, not shown: large carriers) [peptide MRAAADP (SEQ ID NO:16) fused to alkaline phosphatase]
8 | binds | MRAAEDP (peptide, not shown: large carriers) [peptide MRAAEDP (SEQ ID NO:18) fused to alkaline phosphatase]
9 | binds | MQAARDP (peptide, not shown: large carriers) [peptide MQAARDP (SEQ ID NO:12) fused to alkaline phosphatase]
10 | binds | MRAAQDP (peptide, not shown: large carriers) [peptide MRAAQDP (SEQ ID NO:14) fused to alkaline phosphatase]
11 | binds | MEAAEDP (peptide, not shown: large carriers) [peptide MEAAEDP (SEQ ID NO:15) fused to alkaline phosphatase]

Target: recombinant full-length delta PKC (rat)
Test: ELISA

Row | binding | Binder
12 | binds | B1
